In PMC3865253:
Results are given in words; binding and its absence hold for the method and conditions named. In cells and extracts the contact can be indirect. Some entries that bind do so weakly or less than the wild type. For some of these results: Tags and fused reporters may be left off the sequences shown. Blank lines part the entries; values can stand above or below the substance they belong to.

Tests used:
[1] = target: T1, GFP-ICA69 (islet cell autoantigen 69 kDa) (rat) (UniProt Q63054); assay: co-IP; 293T cells triple-transfected with myc-PKCα, HA-PICK1 and GFP-ICA69; precipitated with rabbit anti-GFP antibody; blots with anti-PICK1 and anti-myc
T1 sequence: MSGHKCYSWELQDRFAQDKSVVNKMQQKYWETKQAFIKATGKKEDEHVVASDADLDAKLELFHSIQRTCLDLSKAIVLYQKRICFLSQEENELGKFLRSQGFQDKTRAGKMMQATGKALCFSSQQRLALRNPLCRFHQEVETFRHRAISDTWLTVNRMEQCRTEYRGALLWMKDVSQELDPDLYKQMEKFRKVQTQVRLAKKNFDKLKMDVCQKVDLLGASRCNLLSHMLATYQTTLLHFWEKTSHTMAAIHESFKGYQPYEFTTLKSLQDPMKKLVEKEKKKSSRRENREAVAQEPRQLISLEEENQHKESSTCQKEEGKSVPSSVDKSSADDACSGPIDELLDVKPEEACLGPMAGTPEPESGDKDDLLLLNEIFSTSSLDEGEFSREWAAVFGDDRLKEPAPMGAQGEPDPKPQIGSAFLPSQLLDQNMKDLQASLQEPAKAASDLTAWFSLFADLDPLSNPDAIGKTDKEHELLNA

[2] = target: T2, ICA69, endogenous in rat brain (rat (endogenous in rat brain)) (UniProt Q63054); assay: co-IP; rat brain homogenate; precipitated with rabbit anti-ICA69 antibody; blots with anti-PKCα, anti-PICK1 and anti-ICA69; rabbit IgG as negative control
T2 sequence: T1 sequence

[3] = target: T1, GFP-ICA69 (islet cell autoantigen 69 kDa) (rat); assay: co-IP; 293T cells co-transfected with myc-PICK1 and GFP, GFP-ICA69 or a GFP-tagged truncation; RIPA lysate; precipitated with anti-GFP antibody on protein A-sepharose; blot with anti-myc; quantified as Co-IP myc/Input myc, normalized to the ICA69 group; 4 independent cultures
[4] = target: HA-PICK1 (rat) (UniProt Q9EP80); assay: co-IP; 293T cells co-transfected with HA-PICK1 and myc-PKCα; precipitated with mouse anti-HA antibody; blot with anti-myc

binding [1]: binds
Substance: HA-PICK1 (from UniProt Q9EP80 1-416)

binding [2]: binds
Substance: PICK1, endogenous in rat brain (from UniProt Q9EP80 1-416)

binding [3]: binds
Substance: myc-PICK1 (protein interacting with C-kinase 1) (from UniProt Q9EP80 1-416)

binding [4]: binds
Substance: myc-PKCα (from UniProt P05696 1-672) (enzyme)
